Measurements reported in PubChem BioAssay AID504791 (Drosophila RNAi Screening Center, 2011).

Purpose: 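Genes whose knock-down strengthens or weakens small-RNA reporter silencing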 (primary screen)
Cell system: Drosophila S2-derived reporter cells
Knock-down reagent: long dsRNA against Drosophila genes, about 150-250 ng dsRNA per well (siRNA assay); about 80-120 ng (miRNA assay)
Timing: about 5 days (siRNA assay); about 4 days (miRNA assay)
Treatment: copper sulfate induction of reporters: 25 µM (siRNA assay); 200 mM stated (miRNA assay), 1-2 days before reading
Measurement: 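Dual luciferase assay: Renilla to firefly signal ratio in each well, scaled to the mean ratio of its plate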
Call rule: 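First-pass picks had plate-scaled ratios over 1.5 for the siRNA assay, over 1.6 for the miRNA assay, or under 0.6; two distinct dsRNAs had to score alike on retest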
The deposit covers about 23,000 reagents; shown is a random part of those with a known target gene and a result. In the full data, 199 (0.86%) were called active. 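Plate-scaled ratios behind the calls are not deposited; printed light signals are raw; many rows marked increased or decreased are still called inactive.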 A plus sign joins genes that one reagent is predicted to hit. Reagent sequences are not shown. Not stated in the record: the direction of the score.

stable siRNA reporter change,miRNA reporter change,"stable assay Renilla, run 1 (luminescence)","stable assay firefly, run 1 (luminescence)",call,target,DRSC id
,,6444,4.27e5,inactive,CG12491 + CG34105,DRSC04008
,,6000,3.35e5,inactive,CG12491 + CG34105,DRSC04124
,,12012,8.45e5,inactive,Elba3,DRSC00469
,,8577,1.77e6,inactive,Arpc2,DRSC02113
,,8131,4.67e5,inactive,CG5781,DRSC02893
,,5882,3.43e5,inactive,RpS16,DRSC04442
,,9855,3.53e5,inactive,Pdss2,DRSC11625
,,7504,4.77e5,inactive,Arp8,DRSC20059
,,6770,5.15e5,inactive,Ulp1,DRSC19339
,,7631,3.96e5,inactive,yellow-c + CIAPIN1,DRSC01898
,,6268,3.76e5,inactive,Tim17a1,DRSC14184
,,6696,3.61e5,inactive,CG10185,DRSC14205

3 entries from above, sorted by “stable assay Renilla, run 1 (luminescence)”, high to low:
stable siRNA reporter change,miRNA reporter change,"stable assay Renilla, run 1 (luminescence)","stable assay firefly, run 1 (luminescence)",call,target,DRSC id
,,7631,3.96e5,inactive,yellow-c + CIAPIN1,DRSC01898
,,6770,5.15e5,inactive,Ulp1,DRSC19339
,,6268,3.76e5,inactive,Tim17a1,DRSC14184

The list goes on:
stable siRNA reporter change,miRNA reporter change,"stable assay Renilla, run 1 (luminescence)","stable assay firefly, run 1 (luminescence)",call,target,DRSC id
,,6768,4.47e5,inactive,CG7781,DRSC03068
reporter ratio raised past the hit cutoff,,5920,1.36e5,active,alphaSnap,DRSC11285
,reporter ratio raised past the hit cutoff,,,inactive,alphaSnap,DRSC29788
,,5544,5.79e5,inactive,DNAlig4,DRSC19436
,,6871,4.20e5,inactive,CG10651,DRSC02086
,,10962,4.44e5,inactive,CG9205,DRSC08642
,,4436,2.70e5,inactive,Prosbeta2R1,DRSC18154
,,6451,3.75e5,inactive,FucTD,DRSC08634
,,6327,3.20e5,inactive,AstA-R2,DRSC14171
,,7639,4.55e5,inactive,CG15864,DRSC15122
,,7683,5.26e5,inactive,CG31674,DRSC03208
,,6179,2.95e5,inactive,Rbcn-3A,DRSC18314
,,8167,5.14e5,inactive,yellow-e3,DRSC15170
,,4484,4.37e5,inactive,CG34033,DRSC05190
,,6226,3.81e5,inactive,TBC1d7 + mRpS24,DRSC14611
,,7450,5.60e5,inactive,Pka-R2,DRSC07509
,,11050,4.57e5,inactive,CG42266,DRSC21577
,,9447,5.43e5,inactive,CG42266,DRSC21957
,,9006,3.10e5,inactive,Gk1,DRSC08533
,,6962,4.13e5,inactive,Gk1,DRSC08534
,,8654,4.00e5,inactive,CG12589,DRSC12215
,,6046,3.81e5,inactive,CG13197,DRSC06322
